Measurements published in ChEMBL document CHEMBL4316593 (Eur J Med Chem, 2019).
Further values from the same series stand in other lists.

Columns and labels:
Format in all cases: cell-based
Conditions in all cases: U-87MG ATCC
[1] = Inhibition of RTK/PI3K/AKT/mTOR signaling in human U87 cells assessed as up regulation of keratin 18 gene expression at cytotoxic IC50 measured after 48 hrs relative to control
[2] = Inhibition of RTK/PI3K/AKT/mTOR signaling in human U87 cells assessed as up regulation of KIAA2013 gene expression at cytotoxic IC50 measured after 48 hrs relative to control
[3] = Inhibition of RTK/PI3K/AKT/mTOR signaling in human U87 cells assessed as up regulation of STEAP2 metalloreductase gene expression at cytotoxic IC50 measured after 48 hrs relative to control
[4] = Inhibition of RTK/PI3K/AKT/mTOR signaling in human U87 cells assessed as down regulation of TINF2 gene expression at cytotoxic IC50 measured after 48 hrs relative to control
[5] = Inhibition of RTK/PI3K/AKT/mTOR signaling in human U87 cells assessed as down regulation of C9orf16 gene expression at cytotoxic IC50 measured after 48 hrs relative to control
[6] = Inhibition of RTK/PI3K/AKT/mTOR signaling in human U87 cells assessed as up regulation of eukaryotic translation elongation factor 1 alpha 2 gene expression at cytotoxic IC50 measured after 48 hrs relative to control
[7] = Inhibition of RTK/PI3K/AKT/mTOR signaling in human U87 cells assessed as up regulation of thymidine phosphorylase gene expression at cytotoxic IC50 measured after 48 hrs relative to control
[8] = Inhibition of RTK/PI3K/AKT/mTOR signaling in human U87 cells assessed as down regulation of ARHGAP17 gene expression at cytotoxic IC50 measured after 48 hrs relative to control
[9] = Inhibition of RTK/PI3K/AKT/mTOR signaling in human U87 cells assessed as down regulation of DAAM1 gene expression at cytotoxic IC50 measured after 48 hrs relative to control
[10] = Inhibition of RTK/PI3K/AKT/mTOR signaling in human U87 cells assessed as down regulation of JAK2 gene expression at cytotoxic IC50 measured after 48 hrs relative to control
[11] = Inhibition of RTK/PI3K/AKT/mTOR signaling in human U87 cells assessed as up regulation of ilvB acetolactate synthase like gene expression at cytotoxic IC50 measured after 48 hrs relative to control
[12] = Inhibition of RTK/PI3K/AKT/mTOR signaling in human U87 cells assessed as up regulation of AKAP1 gene expression at cytotoxic IC50 measured after 48 hrs relative to control
[13] = Inhibition of RTK/PI3K/AKT/mTOR signaling in human U87 cells assessed as up regulation of mediator complex subunit 22 gene expression at cytotoxic IC50 measured after 48 hrs relative to control
[14] = Inhibition of RTK/PI3K/AKT/mTOR signaling in human U87 cells assessed as up regulation of peptidylprolyl isomerase B gene expression at cytotoxic IC50 measured after 48 hrs relative to control
[15] = Inhibition of RTK/PI3K/AKT/mTOR signaling in human U87 cells assessed as up regulation of cytochrome c oxidase III gene expression at cytotoxic IC50 measured after 48 hrs relative to control
[16] = Inhibition of RTK/PI3K/AKT/mTOR signaling in human U87 cells assessed as up regulation of four jointed box 1 gene expression at cytotoxic IC50 measured after 48 hrs relative to control
[17] = Inhibition of RTK/PI3K/AKT/mTOR signaling in human U87 cells assessed as down regulation of PIGS gene expression at cytotoxic IC50 measured after 48 hrs relative to control
[18] = Inhibition of RTK/PI3K/AKT/mTOR signaling in human U87 cells assessed as up regulation of bone morphogenetic protein receptor type 1A gene expression at cytotoxic IC50 measured after 48 hrs relative to control
[19] = Inhibition of RTK/PI3K/AKT/mTOR signaling in human U87 cells assessed as up regulation of caldesmon 1 gene expression at cytotoxic IC50 measured after 48 hrs relative to control
[20] = Inhibition of RTK/PI3K/AKT/mTOR signaling in human U87 cells assessed as down regulation of KIF23 gene expression at cytotoxic IC50 measured after 48 hrs relative to control
[21] = Inhibition of RTK/PI3K/AKT/mTOR signaling in human U87 cells assessed as down regulation of RNF19B gene expression at cytotoxic IC50 measured after 48 hrs relative to control
[22] = Inhibition of RTK/PI3K/AKT/mTOR signaling in human U87 cells assessed as down regulation of FBXL18 gene expression at cytotoxic IC50 measured after 48 hrs relative to control
[23] = Inhibition of RTK/PI3K/AKT/mTOR signaling in human U87 cells assessed as up regulation of NFIX gene expression at cytotoxic IC50 measured after 48 hrs relative to control
[24] = Inhibition of RTK/PI3K/AKT/mTOR signaling in human U87 cells assessed as up regulation of UBE2Z gene expression at cytotoxic IC50 measured after 48 hrs relative to control
[25] = Inhibition of RTK/PI3K/AKT/mTOR signaling in human U87 cells assessed as up regulation of IL20RB gene expression at cytotoxic IC50 measured after 48 hrs relative to control
[26] = Inhibition of RTK/PI3K/AKT/mTOR signaling in human U87 cells assessed as up regulation of family with sequence similarity 175 member A gene expression at cytotoxic IC50 measured after 48 hrs relative to control
[27] = Inhibition of RTK/PI3K/AKT/mTOR signaling in human U87 cells assessed as up regulation of ZNF469 gene expression at cytotoxic IC50 measured after 48 hrs relative to control
[28] = Inhibition of RTK/PI3K/AKT/mTOR signaling in human U87 cells assessed as up regulation of MXI1 gene expression at cytotoxic IC50 measured after 48 hrs relative to control
[29] = Inhibition of RTK/PI3K/AKT/mTOR signaling in human U87 cells assessed as up regulation of PRPH gene expression at cytotoxic IC50 measured after 48 hrs relative to control
[30] = Inhibition of RTK/PI3K/AKT/mTOR signaling in human U87 cells assessed as down regulation of EIF1 gene expression at cytotoxic IC50 measured after 48 hrs relative to control
[31] = Inhibition of RTK/PI3K/AKT/mTOR signaling in human U87 cells assessed as down regulation of KLHL12 gene expression at cytotoxic IC50 measured after 48 hrs relative to control
[32] = Inhibition of RTK/PI3K/AKT/mTOR signaling in human U87 cells assessed as down regulation of CDC37L1 gene expression at cytotoxic IC50 measured after 48 hrs relative to control

**Q.** With `CC(=O)C(=NNc1ccccc1C#N)C(C)=O` as the compound, how does the log2FC [1] read?
**A.** 1.42

**Q.** What about the log2FC [2] of the same compound?
**A.** 0.687

**Q.** And the log2FC [3]?
**A.** 0.964

**Q.** And the log2FC [4]?
**A.** -0.711

**Q.** What about the log2FC [5] of the same compound?
**A.** -0.718

**Q.** And the log2FC [6]?
**A.** 0.829

**Q.** What about the log2FC [7] of the same compound?
**A.** 1.55

**Q.** And the log2FC [8]?
**A.** -0.936

**Q.** And the log2FC [9]?
**A.** -0.918

**Q.** What about the log2FC [10] of the same compound?
**A.** -1.11

**Q.** And the log2FC [11]?
**A.** 1.25

**Q.** And the log2FC [12]?
**A.** 1.6

**Q.** What about the log2FC [13] of the same compound?
**A.** 0.903

**Q.** And the log2FC [14]?
**A.** 1.12

**Q.** What about the log2FC [15] of the same compound?
**A.** 1.02

**Q.** And the log2FC [16]?
**A.** 1.43

**Q.** And the log2FC [17]?
**A.** -0.715

**Q.** What about the log2FC [18] of the same compound?
**A.** 0.661

**Q.** And the log2FC [19]?
**A.** 1.3

**Q.** And the log2FC [20]?
**A.** -0.629

**Q.** What about the log2FC [21] of the same compound?
**A.** -0.727

**Q.** What about the log2FC [22] of the same compound?
**A.** -1.26

**Q.** And the log2FC [23]?
**A.** 0.577

**Q.** And the log2FC [24]?
**A.** 0.325

**Q.** And the log2FC [25]?
**A.** 3.64

**Q.** And the log2FC [26]?
**A.** 1.38

**Q.** And the log2FC [27]?
**A.** 2.87

**Q.** What about the log2FC [28] of the same compound?
**A.** 1.99

**Q.** And the log2FC [29]?
**A.** 1.75

**Q.** What about the log2FC [30] of the same compound?
**A.** -0.321

**Q.** And the log2FC [31]?
**A.** -0.483

**Q.** What about the log2FC [32] of the same compound?
**A.** -0.871
